Results taken from paper PMC5477519, “Leukocyte integrin Mac-1 regulates thrombosis via interaction with platelet GPIbα” (Nature Communications, 2017).
Residue numbers refer to the chain shown, from its start. In names and notes the source's numbering stands. No constants are given. Whether binding was seen depends on the method and setting. Some results given as binding are weak or reduced against the parent protein; the word gives no strength. Sequences can lack the tags named with a protein.

The chains behind the UniProt entries cited, without tags or fusion partners. Residues count along the entry.
UniProt P29965, residues 113-261: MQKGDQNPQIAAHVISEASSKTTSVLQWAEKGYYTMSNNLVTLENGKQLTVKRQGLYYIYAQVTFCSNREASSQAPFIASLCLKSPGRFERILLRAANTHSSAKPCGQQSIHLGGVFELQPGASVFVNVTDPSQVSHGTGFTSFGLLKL

B1: WT murine αMI-domain (S213 and R216), GST fusion protein (domain or fragment, UniProt P05555 148-334)
chain: ESDIVFLIDGSGSINNIDFQKMKEFVSTVMEQFKKSKTLFSLMQYSDEFRIHFTFNDFKRNPSPRSHVSPIKQLNGRTKTASGIRKVVRELFHKTNGARENAAKILVVITDGEKFGDPLDYKDVIPEADRAGVIRYVIGVGNAFNKPQSRRELDTIASKPAGEHVFQVDNFEALNTIQNQLQEKIFA
modifications: Alexa-488 label (only in the flow cytometry on platelets, Fig. 6c)
B2: S213A/R216A murine αMI-domain double mutant, GST fusion protein (domain or fragment, UniProt P05555 148-334)
chain: B1 chain with S82A, R85A
modifications: Alexa-488 label (only in the flow cytometry on platelets, Fig. 6c)

Molecular target: CD40 ligand (R&D Systems) (UniProt P29965)
Test: ELISA; solid phase assay; ligands coated on Costar 96-well HB plates (2 μg/ml, fibrinogen 1 μg/ml), post-coated with 0.5% PVP; GST-tagged I-domains 5 μg/ml in HBSS, 20 mM HEPES pH 7.4, 2 mM CaCl2, 2 mM MgCl2, 1 h at 37 °C; detected with HRP-labelled anti-GST; both purified

| Binder | binding |
| --- | --- |
| B1 | binds |
| B2 | binds |
